Measured values from PMC6182141, “Lytic gene expression in the temperate bacteriophage GIL01 is activated by a phage-encoded LexA homologue”.
Results are given in words; binding and its absence hold for the method and conditions named. Binding can be weak; no strength is given.

Key:
[1] = molecular target: T1, Bacillus thuringiensis LexA repressor (B. thuringiensis) (UniProt A0RH75); assay: DNase I footprinting; ^32P-labelled P3 fragment (GIL01 4801-5000); LexA 0-480 nM without or with 340 nM gp7; LexA-induced hypersensitive sites altered by gp7; both purified
T1 sequence: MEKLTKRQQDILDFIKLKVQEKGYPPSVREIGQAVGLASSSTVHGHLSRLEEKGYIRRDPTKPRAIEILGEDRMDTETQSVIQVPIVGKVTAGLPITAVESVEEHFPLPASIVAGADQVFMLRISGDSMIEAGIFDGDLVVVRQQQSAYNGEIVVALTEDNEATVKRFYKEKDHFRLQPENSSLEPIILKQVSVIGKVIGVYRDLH

[2] = molecular target: T1, Bacillus thuringiensis LexA repressor (B. thuringiensis); assay: native gel or EMSA; P^32 end-labelled P3 promoter fragment carrying dinBox2 and dinBox3; LexA 0.17-13.28 nM with 17 nM gp7; gp7 gives a shift of higher molecular weight of the LexA-DNA complex; both purified
[3] = molecular target: T1, Bacillus thuringiensis LexA repressor (B. thuringiensis); assay: SPR; Biacore T100, 25°C; P3 DNA probes (wild-type spacing, or 5 or 10 nt inserted between dinBox2 and dinBox3) held on a streptavidin chip through the S1 primer; LexA and gp7 injected at 100 μl/min; 25 mM Tris-HCl pH 7.4, 140 mM NaCl, 5 mM EDTA, 2 mM DTT, 0.1 mg/ml BSA, 0.005% P20; both purified

Measured: binding

GIL01 phage-encoded protein gp7 (bacteriophage GIL01)
binds: [1] | [2] | [3]
